2 molecules from paper PMC8877947 can be followed below.

No constants are given. Whether binding was seen depends on the method and setting. Binding seen in cells or lysates may run through a third protein. Some results given as binding are weak or reduced against the parent protein; the word gives no strength.

Experiment [1] has as its target T1, barrier-to-autointegration factor-like protein (BAF-L) (mouse (endogenous in testis)) (UniProt Q8BVR0).
T1 sequence: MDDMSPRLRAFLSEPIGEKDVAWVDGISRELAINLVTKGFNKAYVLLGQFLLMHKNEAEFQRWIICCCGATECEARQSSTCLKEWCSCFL
Description: co-IP; testis lysate (50 mM Tris, 150 mM NaCl, 0.1-0.5% Tween 20, pH 7.5) precipitated with BAF-L antibody on protein A/G magnetic beads, 1 h at 4 °C; blots for histones H2A, H2B, H3, H4 and protamine 1.

Experiment [2] has as its target T2, protamine 1 (mouse (endogenous in testis)) (UniProt P02319).
T2 sequence: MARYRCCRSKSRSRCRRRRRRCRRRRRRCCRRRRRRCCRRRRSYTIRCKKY
In words: co-IP; reverse: testis lysate (50 mM Tris, 150 mM NaCl, 0.1-0.5% Tween 20, pH 7.5) precipitated with histone H3, histone H4 or protamine 1 antibody on protein A/G magnetic beads, 1 h at 4 °C; blot for BAF-L.

B1: protamine 1 (protein, UniProt P02319 1-51)
chain: MARYRCCRSKSRSRCRRRRRRCRRRRRRCCRRRRRRCCRRRRSYTIRCKKY
In the case of B1, the binding result in experiment [1] is “binds”.

B2: barrier-to-autointegration factor-like protein (BAF-L) (protein, UniProt Q8BVR0 1-90)
chain: MDDMSPRLRAFLSEPIGEKDVAWVDGISRELAINLVTKGFNKAYVLLGQFLLMHKNEAEFQRWIICCCGATECEARQSSTCLKEWCSCFL
On to B2, for which, in experiment [2], the binding entry is listed as “binds”.
